The values that follow come from the supplement of paper PMC10849652.

Sequences of proteins named here, by UniProt entry; tags and fusion partners are left off. A change or cut given only in a name is not applied to a line headed by its entry.
UniProt Q9NQE9: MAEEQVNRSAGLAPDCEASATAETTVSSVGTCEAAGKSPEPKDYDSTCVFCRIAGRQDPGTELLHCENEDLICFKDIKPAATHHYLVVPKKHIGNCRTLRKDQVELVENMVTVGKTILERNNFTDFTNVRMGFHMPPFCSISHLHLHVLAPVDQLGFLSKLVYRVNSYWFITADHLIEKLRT
UniProt Q00613: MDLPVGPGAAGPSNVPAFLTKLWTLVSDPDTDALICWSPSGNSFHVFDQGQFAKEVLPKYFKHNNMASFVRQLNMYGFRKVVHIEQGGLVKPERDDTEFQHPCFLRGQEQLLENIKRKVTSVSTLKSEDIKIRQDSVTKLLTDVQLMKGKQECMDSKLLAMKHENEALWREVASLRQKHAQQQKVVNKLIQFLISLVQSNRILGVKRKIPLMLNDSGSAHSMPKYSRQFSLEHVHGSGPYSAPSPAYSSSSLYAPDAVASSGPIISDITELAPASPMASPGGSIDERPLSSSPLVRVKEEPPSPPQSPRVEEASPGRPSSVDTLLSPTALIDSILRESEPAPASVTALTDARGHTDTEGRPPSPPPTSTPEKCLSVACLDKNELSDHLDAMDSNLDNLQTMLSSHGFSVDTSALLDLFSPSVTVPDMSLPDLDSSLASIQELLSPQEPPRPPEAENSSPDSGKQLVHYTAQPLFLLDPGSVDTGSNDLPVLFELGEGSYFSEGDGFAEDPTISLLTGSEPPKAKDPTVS
UniProt H0YH80: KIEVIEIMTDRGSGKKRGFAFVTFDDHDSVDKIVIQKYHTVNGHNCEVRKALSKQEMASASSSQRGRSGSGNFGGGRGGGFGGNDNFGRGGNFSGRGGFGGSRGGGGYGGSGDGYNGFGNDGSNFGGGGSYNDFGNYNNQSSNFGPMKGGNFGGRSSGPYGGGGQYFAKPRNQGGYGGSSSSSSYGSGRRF
UniProt Q5GLZ8: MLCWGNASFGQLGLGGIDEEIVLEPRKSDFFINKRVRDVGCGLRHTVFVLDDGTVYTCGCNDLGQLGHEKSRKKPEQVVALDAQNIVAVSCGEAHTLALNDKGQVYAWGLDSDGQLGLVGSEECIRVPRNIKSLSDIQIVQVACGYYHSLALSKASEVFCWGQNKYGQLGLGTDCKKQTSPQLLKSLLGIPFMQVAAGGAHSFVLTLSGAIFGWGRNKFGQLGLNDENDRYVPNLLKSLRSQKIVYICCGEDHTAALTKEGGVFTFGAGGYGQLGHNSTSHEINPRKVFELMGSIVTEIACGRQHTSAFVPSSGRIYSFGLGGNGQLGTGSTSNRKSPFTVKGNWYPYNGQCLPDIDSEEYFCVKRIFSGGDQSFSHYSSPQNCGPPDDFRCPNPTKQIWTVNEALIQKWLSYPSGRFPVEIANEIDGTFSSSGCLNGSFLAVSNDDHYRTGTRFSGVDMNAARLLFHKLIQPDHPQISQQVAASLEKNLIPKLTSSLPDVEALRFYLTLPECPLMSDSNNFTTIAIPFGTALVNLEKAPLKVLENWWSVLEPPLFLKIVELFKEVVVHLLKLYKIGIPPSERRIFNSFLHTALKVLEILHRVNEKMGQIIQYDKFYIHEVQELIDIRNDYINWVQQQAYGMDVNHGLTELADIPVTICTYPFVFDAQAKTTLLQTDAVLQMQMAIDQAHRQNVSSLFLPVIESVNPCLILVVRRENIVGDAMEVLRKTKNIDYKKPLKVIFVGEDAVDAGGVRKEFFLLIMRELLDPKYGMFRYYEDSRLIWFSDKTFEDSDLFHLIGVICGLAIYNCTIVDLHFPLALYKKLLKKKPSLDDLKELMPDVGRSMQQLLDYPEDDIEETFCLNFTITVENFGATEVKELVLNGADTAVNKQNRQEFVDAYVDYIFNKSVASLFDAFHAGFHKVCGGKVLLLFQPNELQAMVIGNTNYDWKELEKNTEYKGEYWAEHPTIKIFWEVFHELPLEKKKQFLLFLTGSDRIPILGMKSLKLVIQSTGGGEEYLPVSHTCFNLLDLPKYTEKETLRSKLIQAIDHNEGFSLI
UniProt Q3SXM5: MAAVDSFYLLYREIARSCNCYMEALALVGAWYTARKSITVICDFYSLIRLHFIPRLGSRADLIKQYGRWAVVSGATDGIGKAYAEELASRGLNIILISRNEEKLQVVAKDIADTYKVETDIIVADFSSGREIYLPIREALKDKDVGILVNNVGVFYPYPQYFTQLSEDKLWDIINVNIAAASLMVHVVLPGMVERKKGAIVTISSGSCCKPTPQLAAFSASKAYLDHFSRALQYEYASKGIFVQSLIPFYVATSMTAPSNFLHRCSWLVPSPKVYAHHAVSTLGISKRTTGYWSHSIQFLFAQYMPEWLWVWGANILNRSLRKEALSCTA
UniProt Q99729: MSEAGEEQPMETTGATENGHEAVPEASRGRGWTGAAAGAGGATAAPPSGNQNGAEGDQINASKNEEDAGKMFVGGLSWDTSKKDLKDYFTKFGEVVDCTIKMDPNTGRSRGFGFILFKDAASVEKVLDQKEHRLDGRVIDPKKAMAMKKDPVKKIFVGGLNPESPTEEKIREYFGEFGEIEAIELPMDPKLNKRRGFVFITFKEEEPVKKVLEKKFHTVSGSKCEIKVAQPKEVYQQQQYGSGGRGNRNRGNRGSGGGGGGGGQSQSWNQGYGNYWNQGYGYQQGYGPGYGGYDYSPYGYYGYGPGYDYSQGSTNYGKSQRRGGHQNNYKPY
UniProt Q8NBQ5: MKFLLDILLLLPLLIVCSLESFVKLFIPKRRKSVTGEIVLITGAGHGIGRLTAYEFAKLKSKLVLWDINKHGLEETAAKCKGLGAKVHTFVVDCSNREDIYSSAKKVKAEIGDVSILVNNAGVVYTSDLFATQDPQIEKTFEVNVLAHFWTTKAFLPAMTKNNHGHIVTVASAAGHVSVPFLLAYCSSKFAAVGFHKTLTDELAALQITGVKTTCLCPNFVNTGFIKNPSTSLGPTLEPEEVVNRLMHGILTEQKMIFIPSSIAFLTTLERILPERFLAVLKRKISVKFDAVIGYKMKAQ
UniProt Q9UGU5: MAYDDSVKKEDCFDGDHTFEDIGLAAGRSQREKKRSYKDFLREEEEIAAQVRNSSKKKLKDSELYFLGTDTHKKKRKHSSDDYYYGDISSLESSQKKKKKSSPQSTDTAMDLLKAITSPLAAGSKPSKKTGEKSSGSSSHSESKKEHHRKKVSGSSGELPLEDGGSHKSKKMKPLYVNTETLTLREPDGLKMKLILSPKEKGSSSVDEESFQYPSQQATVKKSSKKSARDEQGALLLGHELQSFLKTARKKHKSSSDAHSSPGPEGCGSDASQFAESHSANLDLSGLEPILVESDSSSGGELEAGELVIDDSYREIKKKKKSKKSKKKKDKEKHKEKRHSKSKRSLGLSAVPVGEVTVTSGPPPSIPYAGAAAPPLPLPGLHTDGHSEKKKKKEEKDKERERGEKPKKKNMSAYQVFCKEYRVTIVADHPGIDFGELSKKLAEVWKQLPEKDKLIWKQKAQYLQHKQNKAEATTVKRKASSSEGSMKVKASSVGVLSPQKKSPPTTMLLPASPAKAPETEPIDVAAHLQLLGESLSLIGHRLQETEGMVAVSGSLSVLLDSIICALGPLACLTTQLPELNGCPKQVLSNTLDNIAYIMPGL
UniProt Q8WVV9: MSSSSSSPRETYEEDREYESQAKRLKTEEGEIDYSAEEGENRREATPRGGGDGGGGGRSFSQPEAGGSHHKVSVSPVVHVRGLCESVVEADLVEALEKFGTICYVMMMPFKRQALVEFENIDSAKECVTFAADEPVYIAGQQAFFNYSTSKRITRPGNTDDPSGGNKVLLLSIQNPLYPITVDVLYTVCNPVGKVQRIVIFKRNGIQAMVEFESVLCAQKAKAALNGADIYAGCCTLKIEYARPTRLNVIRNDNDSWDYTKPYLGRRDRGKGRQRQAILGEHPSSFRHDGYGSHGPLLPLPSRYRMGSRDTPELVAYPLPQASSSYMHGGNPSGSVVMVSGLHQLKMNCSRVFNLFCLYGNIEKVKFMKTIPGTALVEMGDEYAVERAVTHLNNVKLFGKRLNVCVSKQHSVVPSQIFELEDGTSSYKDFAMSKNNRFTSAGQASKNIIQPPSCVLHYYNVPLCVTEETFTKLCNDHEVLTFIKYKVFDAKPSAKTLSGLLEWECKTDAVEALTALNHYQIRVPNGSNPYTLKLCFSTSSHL
UniProt Q13151: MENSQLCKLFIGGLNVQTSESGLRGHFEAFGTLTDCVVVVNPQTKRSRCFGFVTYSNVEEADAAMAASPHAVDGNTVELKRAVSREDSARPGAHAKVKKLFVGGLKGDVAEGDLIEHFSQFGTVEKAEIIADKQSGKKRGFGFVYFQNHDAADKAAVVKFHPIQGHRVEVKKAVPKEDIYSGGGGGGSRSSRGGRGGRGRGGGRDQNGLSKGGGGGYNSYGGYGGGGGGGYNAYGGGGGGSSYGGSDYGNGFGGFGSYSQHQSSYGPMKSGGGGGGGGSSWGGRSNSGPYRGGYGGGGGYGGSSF
UniProt P82970: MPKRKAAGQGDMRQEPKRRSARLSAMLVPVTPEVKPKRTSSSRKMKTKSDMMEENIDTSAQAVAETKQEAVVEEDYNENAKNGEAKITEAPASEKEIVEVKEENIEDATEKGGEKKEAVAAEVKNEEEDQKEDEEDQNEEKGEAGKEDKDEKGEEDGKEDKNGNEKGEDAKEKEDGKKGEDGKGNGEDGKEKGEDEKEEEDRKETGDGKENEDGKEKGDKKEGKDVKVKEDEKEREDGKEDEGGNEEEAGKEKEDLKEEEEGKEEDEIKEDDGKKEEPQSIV
UniProt P05114: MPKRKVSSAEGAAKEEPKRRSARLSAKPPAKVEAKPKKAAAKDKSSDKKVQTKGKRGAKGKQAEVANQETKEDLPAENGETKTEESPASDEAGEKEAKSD
UniProt O75506: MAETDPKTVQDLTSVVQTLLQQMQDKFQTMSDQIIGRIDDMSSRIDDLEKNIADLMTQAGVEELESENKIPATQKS
UniProt P52789: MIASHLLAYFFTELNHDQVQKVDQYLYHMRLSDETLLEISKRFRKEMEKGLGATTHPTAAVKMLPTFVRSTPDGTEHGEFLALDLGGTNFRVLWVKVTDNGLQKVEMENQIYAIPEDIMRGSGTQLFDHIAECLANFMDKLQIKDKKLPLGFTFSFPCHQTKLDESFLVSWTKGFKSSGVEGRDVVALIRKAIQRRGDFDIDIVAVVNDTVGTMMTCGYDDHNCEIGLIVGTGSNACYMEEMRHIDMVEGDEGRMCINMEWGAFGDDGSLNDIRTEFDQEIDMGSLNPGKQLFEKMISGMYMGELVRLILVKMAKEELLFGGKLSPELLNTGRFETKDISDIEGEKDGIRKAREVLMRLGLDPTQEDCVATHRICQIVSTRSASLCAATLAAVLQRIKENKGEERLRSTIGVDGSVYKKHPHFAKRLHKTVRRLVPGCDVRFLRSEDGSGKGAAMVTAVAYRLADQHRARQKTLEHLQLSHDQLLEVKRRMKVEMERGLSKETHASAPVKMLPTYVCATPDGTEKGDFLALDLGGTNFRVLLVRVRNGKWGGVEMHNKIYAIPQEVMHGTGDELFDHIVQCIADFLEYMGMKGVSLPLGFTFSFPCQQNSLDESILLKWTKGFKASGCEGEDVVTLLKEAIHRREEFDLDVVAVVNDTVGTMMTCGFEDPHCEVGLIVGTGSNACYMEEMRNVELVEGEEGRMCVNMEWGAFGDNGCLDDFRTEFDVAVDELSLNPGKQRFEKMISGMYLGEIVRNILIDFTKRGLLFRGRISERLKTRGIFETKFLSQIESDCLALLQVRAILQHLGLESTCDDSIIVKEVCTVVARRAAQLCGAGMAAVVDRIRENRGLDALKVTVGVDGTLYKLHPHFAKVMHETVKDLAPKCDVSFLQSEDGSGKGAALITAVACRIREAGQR
UniProt Q58FF6, whole entry, looked up: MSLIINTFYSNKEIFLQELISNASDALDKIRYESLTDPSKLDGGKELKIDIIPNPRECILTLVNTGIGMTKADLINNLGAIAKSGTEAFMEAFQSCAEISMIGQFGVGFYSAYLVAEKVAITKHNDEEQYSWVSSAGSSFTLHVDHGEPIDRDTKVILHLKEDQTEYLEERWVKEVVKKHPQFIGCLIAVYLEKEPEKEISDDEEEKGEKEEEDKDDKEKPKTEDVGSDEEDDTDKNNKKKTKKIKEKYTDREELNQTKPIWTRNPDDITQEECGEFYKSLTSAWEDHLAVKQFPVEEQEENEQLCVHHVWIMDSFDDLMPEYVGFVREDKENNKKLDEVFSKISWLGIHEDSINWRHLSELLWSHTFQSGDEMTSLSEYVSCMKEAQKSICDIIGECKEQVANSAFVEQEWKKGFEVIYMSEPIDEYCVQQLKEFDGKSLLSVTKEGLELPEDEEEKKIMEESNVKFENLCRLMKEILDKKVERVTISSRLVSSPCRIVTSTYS
UniProt P31942: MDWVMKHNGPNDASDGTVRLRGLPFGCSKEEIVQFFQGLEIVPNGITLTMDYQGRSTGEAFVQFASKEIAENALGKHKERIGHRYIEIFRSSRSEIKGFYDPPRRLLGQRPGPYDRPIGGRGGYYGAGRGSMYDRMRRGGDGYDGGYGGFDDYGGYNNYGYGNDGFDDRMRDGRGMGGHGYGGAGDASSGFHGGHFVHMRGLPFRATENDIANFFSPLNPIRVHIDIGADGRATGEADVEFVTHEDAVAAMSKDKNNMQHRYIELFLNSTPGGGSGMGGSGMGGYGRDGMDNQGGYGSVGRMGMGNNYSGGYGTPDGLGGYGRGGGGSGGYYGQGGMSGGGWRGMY

This is one part of the list.

Compound in the first assay: O=C1NC(=O)C(c2cnc3ccccn23)=C1c1cn2c3c(cc(F)cc13)CN(C(=O)N1CCCCC1)CC2
The assay can be described thus: log2 fold change, soluble protein after heating vs DMSO (PISA); higher = thermal stabilisation; K562 lysate, 10 uM; active = over 0.2 and 3.5 SD of the protein, either way, in both replicates (recomputed). In a few lines: (§1)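 Pellets of K562 cells were dounce-homogenised in PBS pH 7.4 with 1 mM MgCl2, and the crude extract was held at 1 mg/mL protein for a 30 min treatment with 10 μM compound. Aliquots were heated for 3 min over 48°C-58°C and pooled before NP-40 was added to 0.5% at 4°C. The supernatant from 21,000xg for 90 min was quantified by TMTpro 16plex LC-MS/MS with channel sums equalised. Values are reported from duplicates as log-two fold change in thermal stability relative to solvent controls.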
On to HINT3 (UniProt Q9NQE9), for which the log2 fold change is inactive: -0.046.

Regarding HSPA2 (UniProt P54652), the log2 fold change is inactive: -0.01.

Regarding HPRT1 (UniProt P00492), the log2 fold change was inactive: -0.008.

Turning to HSF1 (UniProt Q00613), the log2 fold change was inactive: -0.022.

For HIRIP3 (UniProt Q9BW71), the log2 fold change is inactive: 0.039.

With HNRNPA1 (UniProt H0YH80), the log2 fold change is inactive: -0.031.

In the case of HSP90B1 (UniProt P14625), the log2 fold change was inactive: 0.008.

Compound in the next assay: c1cn2cc(-c3ccc4cn[nH]c4c3)nc(Nc3ccc(N4CCOCC4)cc3)c2n1 [entospletinib]
The assay is described as above. In a few lines: as §1
Turning to HNRNPR isoform 2 (UniProt O43390), the log2 fold change was inactive: 0.

For HERC4 (UniProt Q5GLZ8), the log2 fold change was inactive: -0.009.

For HOMEZ isoform 3 (UniProt Q8IX15), the log2 fold change was inactive: -0.099.

As for HSDL1 (UniProt Q3SXM5), the log2 fold change was inactive: 0.

With HNRNPA3 (UniProt P51991), the log2 fold change is inactive: 0.039.

In the case of HEXD isoform 2 (UniProt Q8WVB3), the log2 fold change is inactive: 0.216.

In the case of HSD17B7 (UniProt P56937), the log2 fold change is inactive: 0.072.

As for HSP90AB1 (UniProt P08238), the log2 fold change was inactive: -0.006.

As for HELQ (UniProt Q8TDG4), the log2 fold change was inactive: -0.103.

As to HMGB2 (UniProt P26583), the log2 fold change is inactive: 0.003.

As to HNRNPAB isoform 3 (UniProt Q99729), the log2 fold change is inactive: -0.019.

Regarding HNRNPK isoform 3 (UniProt P61978), the log2 fold change was inactive: 0.021.

As for HSD17B11 (UniProt Q8NBQ5), the log2 fold change was inactive: -0.018.

HMGXB4 (UniProt Q9UGU5): the log2 fold change is inactive: -0.18.

As for HNRNPL (UniProt P14866), the log2 fold change is inactive: 0.007.

As for HNRNPLL (UniProt Q8WVV9), the log2 fold change was inactive: 0.034.

As for HMG20A (UniProt Q9NP66), the log2 fold change was inactive: -0.189.

Consider HNRNPA0 (UniProt Q13151), for which the log2 fold change is inactive: -0.047.

As for HMGB3 (UniProt O15347), the log2 fold change was inactive: -0.032.

Turning to HIBCH (UniProt Q6NVY1), the log2 fold change was inactive: -0.007.

Regarding HMGN5 (UniProt P82970), the log2 fold change is inactive: 0.002.

In the case of HMGN1 (UniProt P05114), the log2 fold change was inactive: 0.008.

HSBP1 (UniProt O75506): the log2 fold change is inactive: 0.085.

In the case of HK2 (UniProt P52789), the log2 fold change was inactive: 0.022.

HSP90AB4P (UniProt Q58FF6): the log2 fold change is inactive: -0.011.

Turning to HNRNPH3 (UniProt P31942), the log2 fold change was inactive: 0.013.

In the case of HINT3 (UniProt Q9NQE9), the log2 fold change was inactive: -0.037.

For HSPA2 (UniProt P54652), the log2 fold change is inactive: -0.017.

As for HPRT1 (UniProt P00492), the log2 fold change was inactive: -0.017.

In the case of HSF1 (UniProt Q00613), the log2 fold change was inactive: 0.017.

With HIRIP3 (UniProt Q9BW71), the log2 fold change was inactive: 0.001.

On to HNRNPA1 (UniProt H0YH80), for which the log2 fold change is inactive: -0.004.

For the target HSP90B1 (UniProt P14625), the log2 fold change was inactive: 0.003.
